Measurements taken from publication PMC9826262, “Discovery of Benzo[d]imidazole‐6‐sulfonamides as Bromodomain and Extra‐Terminal Domain (BET) Inhibitors with Selectivity for the First Bromodomain” (Chemmedchem, 2022).

Assay: in vitro
Settings: PAMPA, pH 7.4
Method: Membrane permeability was estimated by the well‐validated parallel artificial membrane permeability assay (PAMPA) technique.[17, 26]
Parallel Artificial Membrane Permeability Assay (PAMPA). Donor solution (0.2 mM) was prepared by diluting 20 mM dimethyl sulfoxide (DMSO) compound stock solution using phosphate buffer (pH 7.4, 0.01 M). Filters were coated with 5 μL of a 1 % (w/v) dodecane solution of L‐α‐phosphatidylcholine. Donor solution (150 μL) was added to each well of the filter plate. To each well of the acceptor plate, 300 μL of solution (5 % DMSO in phosphate buffer) was added. […] The sandwich was incubated for 24 h at room temperature under gentle shaking. After the incubation time, the sandwich plates were separated and 250 μL of the acceptor plate was transferred to a UV quartz microtiter plate and measured by UV spectroscopy, using a Multiskan GO microplate spectrophotometer (Thermo Fisher Scientific) at 250–500 nm at a step of 5 nm. Reference solutions (250 μL) were prepared diluting the sample stock solutions to the same concentration as that with no membrane barrier.
In this equation, VR is the volume of the acceptor compartment (0.3 cm^3), VD is the donor volume (0.15 cm^3), A is the accessible filter area (0.24 cm^2), and t is the incubation time in seconds.

Papp at 24 h, 0.2 mM: 0.0101 ×10⁻⁶ cm/s
Compound: NS(=O)(=O)c1cc(C(=O)O)c(NCc2ccco2)cc1Cl [furosemide]
